{"source": "PubChem BioAssay AID1224830 (NIAID, 2016)", "purpose": "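Host factors that control LPS-induced TNF expression in human macrophages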 (primary screen)", "system": "human THP-1 monocytic leukaemia cells, TNF dual-luciferase reporter clone, PMA-differentiated to macrophage-like cells", "reagents": "siRNA pool against human genes, 50 nM", "time to read-out": "LPS for 4 h, given about 3 days after siRNA transfection", "treatment": "bacterial LPS (TLR4 ligand), 10 ng/ml", "detection": "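Ratio of firefly to renilla light, scaled to the plate median and expressed as a robust z-score per replicate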", "direction": "TNF reporter robust z-score: higher = stronger TNF reporter response to LPS", "call rule": "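Each well counts as active if its z-score is over 2.8 or under -1.5; controls are left without a call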", "note": "This is a random part of about 18,000 reagents tested. About 2,900 of all reagents (16%) were called active. 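Calls are made per well; low scores hint the gene aids the LPS response, high scores that it dampens it.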 Repeated entries: four replicate wells of each siRNA pool. Reagent sequences are not shown."}
{"gene symbol": "SLC30A4", "TNF reporter robust z-score": 0.07, "Call": "inactive"}
{"gene symbol": "SLC30A4", "TNF reporter robust z-score": -0.72, "Call": "inactive"}
{"gene symbol": "SLC30A4", "TNF reporter robust z-score": -0.46, "Call": "inactive"}
{"gene symbol": "SLC30A4", "TNF reporter robust z-score": -0.67, "Call": "inactive"}
{"gene symbol": "SLC37A3", "TNF reporter robust z-score": 0.19, "Call": "inactive"}
{"gene symbol": "SLC37A3", "TNF reporter robust z-score": -0.1, "Call": "inactive"}
{"gene symbol": "SLC37A3", "TNF reporter robust z-score": -0.75, "Call": "inactive"}
{"gene symbol": "SLC37A3", "TNF reporter robust z-score": 0.76, "Call": "inactive"}
{"gene symbol": "FOXP4", "TNF reporter robust z-score": 0.58, "Call": "inactive"}
{"gene symbol": "FOXP4", "TNF reporter robust z-score": -0.04, "Call": "inactive"}
{"gene symbol": "FOXP4", "TNF reporter robust z-score": -0.9, "Call": "inactive"}
{"gene symbol": "FOXP4", "TNF reporter robust z-score": -0.55, "Call": "inactive"}
{"gene symbol": "BRME1", "TNF reporter robust z-score": -2.25, "Call": "active"}
{"gene symbol": "BRME1", "TNF reporter robust z-score": -1.21, "Call": "inactive"}
{"gene symbol": "BRME1", "TNF reporter robust z-score": -1.08, "Call": "inactive"}
{"gene symbol": "BRME1", "TNF reporter robust z-score": -0.4, "Call": "inactive"}

In a second layout: results already given
{"gene symbol":"SLC37A3","TNF reporter robust z-score":0.76,"Call":"inactive"}
{"gene symbol":"FOXP4","TNF reporter robust z-score":0.58,"Call":"inactive"}
{"gene symbol":"FOXP4","TNF reporter robust z-score":-0.04,"Call":"inactive"}
{"gene symbol":"FOXP4","TNF reporter robust z-score":-0.9,"Call":"inactive"}
{"gene symbol":"FOXP4","TNF reporter robust z-score":-0.55,"Call":"inactive"}
{"gene symbol":"BRME1","TNF reporter robust z-score":-2.25,"Call":"active"}
{"gene symbol":"BRME1","TNF reporter robust z-score":-1.21,"Call":"inactive"}
{"gene symbol":"BRME1","TNF reporter robust z-score":-1.08,"Call":"inactive"}

The results go on.
{"gene symbol": "CYTIP", "TNF reporter robust z-score": -0.36, "Call": "inactive"}
{"gene symbol": "CYTIP", "TNF reporter robust z-score": -0.31, "Call": "inactive"}
{"gene symbol": "CYTIP", "TNF reporter robust z-score": -0.69, "Call": "inactive"}
{"gene symbol": "CYTIP", "TNF reporter robust z-score": -0.6, "Call": "inactive"}
{"gene symbol": "SNX18", "TNF reporter robust z-score": -0.86, "Call": "inactive"}
{"gene symbol": "SNX18", "TNF reporter robust z-score": -0.8, "Call": "inactive"}
{"gene symbol": "SNX18", "TNF reporter robust z-score": -0.56, "Call": "inactive"}
{"gene symbol": "SNX18", "TNF reporter robust z-score": -0.95, "Call": "inactive"}
{"gene symbol": "LSM7", "TNF reporter robust z-score": 2.54, "Call": "inactive"}
{"gene symbol": "LSM7", "TNF reporter robust z-score": 2.18, "Call": "inactive"}
{"gene symbol": "LSM7", "TNF reporter robust z-score": -0.36, "Call": "inactive"}
{"gene symbol": "LSM7", "TNF reporter robust z-score": -0.5, "Call": "inactive"}
{"gene symbol": "IL7", "TNF reporter robust z-score": -0.54, "Call": "inactive"}
{"gene symbol": "IL7", "TNF reporter robust z-score": -0.69, "Call": "inactive"}
{"gene symbol": "IL7", "TNF reporter robust z-score": 0.08, "Call": "inactive"}
{"gene symbol": "IL7", "TNF reporter robust z-score": -0.07, "Call": "inactive"}
{"gene symbol": "PAM16", "TNF reporter robust z-score": 0.22, "Call": "inactive"}
{"gene symbol": "PAM16", "TNF reporter robust z-score": 0.82, "Call": "inactive"}
{"gene symbol": "PAM16", "TNF reporter robust z-score": -0.17, "Call": "inactive"}
{"gene symbol": "PAM16", "TNF reporter robust z-score": 0.87, "Call": "inactive"}
{"gene symbol": "ZFAND2A", "TNF reporter robust z-score": -0.78, "Call": "inactive"}
{"gene symbol": "ZFAND2A", "TNF reporter robust z-score": -0.3, "Call": "inactive"}
{"gene symbol": "ZFAND2A", "TNF reporter robust z-score": -0.67, "Call": "inactive"}
{"gene symbol": "ZFAND2A", "TNF reporter robust z-score": -0.41, "Call": "inactive"}
{"gene symbol": "ATRNL1", "TNF reporter robust z-score": 0.34, "Call": "inactive"}
{"gene symbol": "ATRNL1", "TNF reporter robust z-score": -0.11, "Call": "inactive"}
{"gene symbol": "ATRNL1", "TNF reporter robust z-score": -0.34, "Call": "inactive"}
{"gene symbol": "ATRNL1", "TNF reporter robust z-score": 0.09, "Call": "inactive"}
{"gene symbol": "MAPK1", "TNF reporter robust z-score": -0.32, "Call": "inactive"}
{"gene symbol": "MAPK1", "TNF reporter robust z-score": 0.11, "Call": "inactive"}
{"gene symbol": "MAPK1", "TNF reporter robust z-score": 0.13, "Call": "inactive"}
{"gene symbol": "MAPK1", "TNF reporter robust z-score": -0.58, "Call": "inactive"}
